Results published in the supplement of paper PMC7666118.
Some of the results follow.

The chains behind the UniProt entries cited, without tags or fusion partners. Where a name states a change or a piece, a line headed by the entry shows the natural chain unless it says otherwise.
UniProt Q9BX95: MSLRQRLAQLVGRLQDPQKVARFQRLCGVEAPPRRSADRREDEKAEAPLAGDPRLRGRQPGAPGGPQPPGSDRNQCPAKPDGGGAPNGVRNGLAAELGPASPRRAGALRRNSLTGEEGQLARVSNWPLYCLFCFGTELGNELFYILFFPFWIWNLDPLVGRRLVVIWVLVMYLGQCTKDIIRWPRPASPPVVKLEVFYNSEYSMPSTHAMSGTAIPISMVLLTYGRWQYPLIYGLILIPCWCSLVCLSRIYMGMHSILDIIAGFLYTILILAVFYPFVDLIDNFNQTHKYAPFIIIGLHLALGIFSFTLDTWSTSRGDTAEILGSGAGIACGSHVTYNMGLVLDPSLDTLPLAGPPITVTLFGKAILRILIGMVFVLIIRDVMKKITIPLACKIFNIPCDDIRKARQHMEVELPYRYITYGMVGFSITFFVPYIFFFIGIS
UniProt Q9NRH2: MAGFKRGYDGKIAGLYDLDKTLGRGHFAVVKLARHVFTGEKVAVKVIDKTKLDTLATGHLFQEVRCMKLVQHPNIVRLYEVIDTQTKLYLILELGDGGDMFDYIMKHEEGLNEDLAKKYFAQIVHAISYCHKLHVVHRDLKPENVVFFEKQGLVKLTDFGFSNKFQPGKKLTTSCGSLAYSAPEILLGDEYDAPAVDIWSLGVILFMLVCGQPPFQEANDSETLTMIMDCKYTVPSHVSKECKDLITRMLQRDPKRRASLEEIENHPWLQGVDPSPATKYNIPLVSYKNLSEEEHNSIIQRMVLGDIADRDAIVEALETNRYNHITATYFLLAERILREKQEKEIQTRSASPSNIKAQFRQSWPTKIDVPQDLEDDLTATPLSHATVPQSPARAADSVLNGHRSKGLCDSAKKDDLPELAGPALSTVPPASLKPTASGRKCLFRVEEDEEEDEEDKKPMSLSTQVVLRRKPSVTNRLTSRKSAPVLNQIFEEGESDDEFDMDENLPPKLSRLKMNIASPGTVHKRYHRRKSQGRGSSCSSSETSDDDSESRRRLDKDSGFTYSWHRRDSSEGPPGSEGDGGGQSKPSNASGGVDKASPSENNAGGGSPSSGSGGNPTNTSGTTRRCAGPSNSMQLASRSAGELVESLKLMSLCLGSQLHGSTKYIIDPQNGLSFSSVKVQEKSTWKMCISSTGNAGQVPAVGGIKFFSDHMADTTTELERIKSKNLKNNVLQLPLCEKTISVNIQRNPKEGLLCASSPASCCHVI
UniProt Q9H2D1: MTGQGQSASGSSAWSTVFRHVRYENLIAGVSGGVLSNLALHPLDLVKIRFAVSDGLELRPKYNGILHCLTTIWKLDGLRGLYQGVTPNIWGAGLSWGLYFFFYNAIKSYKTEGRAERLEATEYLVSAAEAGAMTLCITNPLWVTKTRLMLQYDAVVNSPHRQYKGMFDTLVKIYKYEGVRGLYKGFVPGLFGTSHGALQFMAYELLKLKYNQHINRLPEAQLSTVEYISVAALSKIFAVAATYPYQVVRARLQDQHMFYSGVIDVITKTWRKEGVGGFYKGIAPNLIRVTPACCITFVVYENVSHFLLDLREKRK
UniProt Q8IUQ4: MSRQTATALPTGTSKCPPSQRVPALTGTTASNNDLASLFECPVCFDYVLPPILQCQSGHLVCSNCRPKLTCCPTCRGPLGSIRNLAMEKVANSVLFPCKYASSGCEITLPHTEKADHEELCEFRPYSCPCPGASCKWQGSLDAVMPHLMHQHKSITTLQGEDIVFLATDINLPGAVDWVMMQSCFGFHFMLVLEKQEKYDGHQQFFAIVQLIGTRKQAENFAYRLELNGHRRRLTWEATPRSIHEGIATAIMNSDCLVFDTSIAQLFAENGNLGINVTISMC
UniProt Q9UGH3: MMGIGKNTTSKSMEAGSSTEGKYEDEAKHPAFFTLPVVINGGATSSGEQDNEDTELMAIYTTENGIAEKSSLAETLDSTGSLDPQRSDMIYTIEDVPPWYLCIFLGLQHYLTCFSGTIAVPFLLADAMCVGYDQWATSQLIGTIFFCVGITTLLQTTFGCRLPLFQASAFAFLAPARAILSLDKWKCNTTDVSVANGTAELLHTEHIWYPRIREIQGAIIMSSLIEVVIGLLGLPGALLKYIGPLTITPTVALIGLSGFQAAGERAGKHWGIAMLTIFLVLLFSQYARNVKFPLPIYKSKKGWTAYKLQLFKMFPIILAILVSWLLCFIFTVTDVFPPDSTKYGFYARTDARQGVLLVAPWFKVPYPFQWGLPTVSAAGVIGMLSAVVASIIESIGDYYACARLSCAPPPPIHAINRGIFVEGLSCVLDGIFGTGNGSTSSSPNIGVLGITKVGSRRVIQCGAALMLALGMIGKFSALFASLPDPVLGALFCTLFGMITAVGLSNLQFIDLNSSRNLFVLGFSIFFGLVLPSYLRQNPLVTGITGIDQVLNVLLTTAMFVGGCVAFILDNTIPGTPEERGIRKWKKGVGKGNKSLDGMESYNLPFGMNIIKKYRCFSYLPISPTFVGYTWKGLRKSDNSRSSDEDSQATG
UniProt Q86TU7: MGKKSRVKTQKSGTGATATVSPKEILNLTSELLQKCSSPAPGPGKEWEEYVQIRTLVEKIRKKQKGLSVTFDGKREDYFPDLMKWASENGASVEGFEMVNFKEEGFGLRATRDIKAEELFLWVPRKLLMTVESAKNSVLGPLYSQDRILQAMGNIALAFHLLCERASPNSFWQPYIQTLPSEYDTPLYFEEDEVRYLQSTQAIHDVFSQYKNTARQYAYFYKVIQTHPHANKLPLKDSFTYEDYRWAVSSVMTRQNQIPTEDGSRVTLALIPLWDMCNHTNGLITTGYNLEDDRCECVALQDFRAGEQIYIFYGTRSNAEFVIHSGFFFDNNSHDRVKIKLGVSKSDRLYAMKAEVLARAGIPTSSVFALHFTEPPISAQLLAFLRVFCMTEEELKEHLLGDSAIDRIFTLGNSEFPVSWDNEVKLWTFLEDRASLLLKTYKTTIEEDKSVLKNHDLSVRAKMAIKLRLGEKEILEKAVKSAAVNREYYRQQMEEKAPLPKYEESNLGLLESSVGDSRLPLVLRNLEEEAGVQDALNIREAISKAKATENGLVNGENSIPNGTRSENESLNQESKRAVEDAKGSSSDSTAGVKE
UniProt Q9H0F6: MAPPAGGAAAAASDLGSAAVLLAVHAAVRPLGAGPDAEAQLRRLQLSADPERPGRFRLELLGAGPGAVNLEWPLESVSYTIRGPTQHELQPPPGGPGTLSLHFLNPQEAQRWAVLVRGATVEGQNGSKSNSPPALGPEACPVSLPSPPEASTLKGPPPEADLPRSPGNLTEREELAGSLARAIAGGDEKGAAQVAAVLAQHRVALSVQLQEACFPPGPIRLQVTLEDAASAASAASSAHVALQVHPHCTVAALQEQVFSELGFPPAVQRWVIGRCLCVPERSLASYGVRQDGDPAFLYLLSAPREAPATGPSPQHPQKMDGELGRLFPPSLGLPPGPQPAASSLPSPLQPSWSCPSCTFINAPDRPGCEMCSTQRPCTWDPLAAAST
UniProt Q15036: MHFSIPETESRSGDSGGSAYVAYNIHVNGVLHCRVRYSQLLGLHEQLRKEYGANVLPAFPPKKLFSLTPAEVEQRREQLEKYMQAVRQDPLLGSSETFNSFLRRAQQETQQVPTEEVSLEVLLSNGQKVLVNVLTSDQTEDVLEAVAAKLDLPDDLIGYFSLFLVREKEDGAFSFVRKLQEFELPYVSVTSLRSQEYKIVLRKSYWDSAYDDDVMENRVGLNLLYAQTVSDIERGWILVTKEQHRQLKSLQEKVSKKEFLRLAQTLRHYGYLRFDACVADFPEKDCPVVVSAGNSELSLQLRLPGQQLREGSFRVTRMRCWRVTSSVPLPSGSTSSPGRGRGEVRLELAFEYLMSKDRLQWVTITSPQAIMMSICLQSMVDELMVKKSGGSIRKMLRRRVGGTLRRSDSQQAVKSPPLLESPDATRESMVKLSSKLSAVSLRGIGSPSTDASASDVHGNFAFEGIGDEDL
UniProt Q9BSK2: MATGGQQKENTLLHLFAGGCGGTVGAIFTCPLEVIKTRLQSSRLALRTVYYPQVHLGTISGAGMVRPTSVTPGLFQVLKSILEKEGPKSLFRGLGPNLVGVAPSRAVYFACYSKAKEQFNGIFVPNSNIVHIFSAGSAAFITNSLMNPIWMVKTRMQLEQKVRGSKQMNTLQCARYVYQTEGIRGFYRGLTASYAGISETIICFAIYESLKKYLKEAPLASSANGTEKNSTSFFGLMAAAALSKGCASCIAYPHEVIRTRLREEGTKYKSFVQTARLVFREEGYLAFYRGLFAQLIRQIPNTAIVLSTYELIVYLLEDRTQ
UniProt Q5FBB7: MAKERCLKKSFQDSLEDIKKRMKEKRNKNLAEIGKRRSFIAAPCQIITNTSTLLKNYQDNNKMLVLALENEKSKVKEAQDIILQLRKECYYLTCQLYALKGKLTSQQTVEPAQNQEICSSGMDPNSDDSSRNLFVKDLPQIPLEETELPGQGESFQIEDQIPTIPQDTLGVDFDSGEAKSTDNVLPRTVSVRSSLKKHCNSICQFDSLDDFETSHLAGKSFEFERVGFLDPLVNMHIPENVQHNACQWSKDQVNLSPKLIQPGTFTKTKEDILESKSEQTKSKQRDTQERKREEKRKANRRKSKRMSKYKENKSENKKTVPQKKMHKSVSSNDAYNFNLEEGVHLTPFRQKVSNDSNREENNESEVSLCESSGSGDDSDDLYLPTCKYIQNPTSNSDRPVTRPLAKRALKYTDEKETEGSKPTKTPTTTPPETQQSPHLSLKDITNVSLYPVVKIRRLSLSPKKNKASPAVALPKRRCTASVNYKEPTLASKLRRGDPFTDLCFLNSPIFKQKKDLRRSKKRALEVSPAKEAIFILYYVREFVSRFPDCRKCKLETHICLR
UniProt Q6PI26: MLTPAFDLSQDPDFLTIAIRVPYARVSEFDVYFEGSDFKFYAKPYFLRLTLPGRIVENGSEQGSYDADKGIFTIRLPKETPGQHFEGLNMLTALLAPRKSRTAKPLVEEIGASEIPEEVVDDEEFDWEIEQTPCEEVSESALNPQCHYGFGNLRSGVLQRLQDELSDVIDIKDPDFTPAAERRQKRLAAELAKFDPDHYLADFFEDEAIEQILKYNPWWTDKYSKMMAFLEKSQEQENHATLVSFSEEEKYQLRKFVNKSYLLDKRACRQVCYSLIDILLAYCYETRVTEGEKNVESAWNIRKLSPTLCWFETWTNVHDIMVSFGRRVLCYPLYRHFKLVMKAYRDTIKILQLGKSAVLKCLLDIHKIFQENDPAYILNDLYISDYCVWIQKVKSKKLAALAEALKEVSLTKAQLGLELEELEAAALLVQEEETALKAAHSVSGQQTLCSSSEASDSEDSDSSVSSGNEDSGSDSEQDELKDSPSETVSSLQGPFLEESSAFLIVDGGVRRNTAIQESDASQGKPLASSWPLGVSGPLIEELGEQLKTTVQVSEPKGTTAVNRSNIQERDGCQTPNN
UniProt Q15797: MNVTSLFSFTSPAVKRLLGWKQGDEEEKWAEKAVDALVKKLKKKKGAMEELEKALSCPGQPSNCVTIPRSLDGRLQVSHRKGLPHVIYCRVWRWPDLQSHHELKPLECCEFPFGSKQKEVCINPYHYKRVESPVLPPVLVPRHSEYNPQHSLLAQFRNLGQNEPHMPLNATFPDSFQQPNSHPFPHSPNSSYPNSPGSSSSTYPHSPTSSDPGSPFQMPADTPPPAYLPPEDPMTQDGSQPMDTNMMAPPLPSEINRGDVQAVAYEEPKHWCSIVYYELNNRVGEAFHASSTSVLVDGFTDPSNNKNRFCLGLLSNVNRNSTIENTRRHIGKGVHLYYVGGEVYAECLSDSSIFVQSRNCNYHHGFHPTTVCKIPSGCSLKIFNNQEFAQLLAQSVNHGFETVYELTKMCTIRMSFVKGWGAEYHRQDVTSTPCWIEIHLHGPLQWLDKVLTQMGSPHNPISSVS
UniProt Q96BD0: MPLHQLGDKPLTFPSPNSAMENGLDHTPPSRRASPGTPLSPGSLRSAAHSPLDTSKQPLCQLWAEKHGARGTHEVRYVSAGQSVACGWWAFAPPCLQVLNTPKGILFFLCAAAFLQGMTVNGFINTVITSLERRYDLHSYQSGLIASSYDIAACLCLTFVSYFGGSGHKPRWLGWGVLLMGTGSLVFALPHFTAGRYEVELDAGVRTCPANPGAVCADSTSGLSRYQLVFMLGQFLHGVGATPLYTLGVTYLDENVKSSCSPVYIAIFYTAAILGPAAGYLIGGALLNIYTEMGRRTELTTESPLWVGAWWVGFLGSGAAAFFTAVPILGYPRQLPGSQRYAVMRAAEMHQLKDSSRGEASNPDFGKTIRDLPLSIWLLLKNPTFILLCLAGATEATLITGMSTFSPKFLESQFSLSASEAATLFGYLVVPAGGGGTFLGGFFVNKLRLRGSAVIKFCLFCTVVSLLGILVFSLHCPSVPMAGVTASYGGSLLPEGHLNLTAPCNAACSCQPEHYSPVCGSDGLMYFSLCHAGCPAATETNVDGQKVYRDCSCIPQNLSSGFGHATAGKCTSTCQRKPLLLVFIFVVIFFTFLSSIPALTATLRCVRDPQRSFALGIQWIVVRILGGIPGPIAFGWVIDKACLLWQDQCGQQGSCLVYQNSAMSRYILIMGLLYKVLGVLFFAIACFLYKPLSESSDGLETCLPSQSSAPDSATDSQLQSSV

Compound: COc1ccc(Cn2ccc3cc(C)c(C(=O)NO)cc32)cc1
Assay: dose-dependent thermal stabilisation call (2D-TPP, DLPTP, 10% FDR) (binary (1 = stabilised)); higher = stabilised by the compound
Conditions: system: HL-60 intact cells; concentration range 0.04-10 µM
Protocol: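 2D thermal proteome profiling in intact HL-60 cells treated with BRD-3811 (0, 0.04, 0.29, 2, 10 uM) for 90 min at 37 C, then heated 3 min at one of 12 temperatures (42-63.9 C). Soluble protein was quantified by TMT10 MS. The value is the DLPTP call of the paper: dose-dependent thermal stabilisation over all temperatures at 10% FDR (F-test of a dose-response against a flat model); one experiment, one call per tested protein.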

How did the “dose-dependent thermal stabilisation call” value turn out when SIRPA (UniProt P78324) was run?
Its value is inactive: 0.

SHCBP1 (UniProt Q8NEM2) was tested. Which “dose-dependent thermal stabilisation call” value did it give?
The value was inactive: 0.

With SGPP1 (UniProt Q9BX95) as the target, how does the “dose-dependent thermal stabilisation call” value read?
Its value is inactive: 0.

Which “dose-dependent thermal stabilisation call” value does the source give for SNRK (UniProt Q9NRH2) here?
Its value is inactive: 0.

How did the “dose-dependent thermal stabilisation call” value turn out when SLC5A3 (UniProt P53794) was run?
The value was inactive: 0.

How did the “dose-dependent thermal stabilisation call” value turn out when SERINC3 (UniProt Q13530) was run?
Its value is inactive: 0.

SLC25A32 (UniProt Q9H2D1) was tested. Which “dose-dependent thermal stabilisation call” value did it give?
Its value is inactive: 0.

Which “dose-dependent thermal stabilisation call” value does the source give for SF3B1 (UniProt O75533) here?
The value was inactive: 0.

SETDB1 (UniProt Q15047) was tested. Which “dose-dependent thermal stabilisation call” value did it give?
Its value is inactive: 0.

With SLC39A14 (UniProt Q15043) as the target, how does the “dose-dependent thermal stabilisation call” value read?
The value was inactive: 0.

Which “dose-dependent thermal stabilisation call” value does the source give for SLC35B1 (UniProt P78383) here?
The value was inactive: 0.

Which “dose-dependent thermal stabilisation call” value does the source give for SIAH1 (UniProt Q8IUQ4) here?
The value was inactive: 0.

SLC23A2 (UniProt Q9UGH3) was tested. Which “dose-dependent thermal stabilisation call” value did it give?
Its value is inactive: 0.

How did the “dose-dependent thermal stabilisation call” value turn out when SLC7A5 (UniProt Q01650) was run?
Its value is inactive: 0.

SETD3 (UniProt Q86TU7) was tested. Which “dose-dependent thermal stabilisation call” value did it give?
Its value is inactive: 0.

SHARPIN (UniProt Q9H0F6) was tested. Which “dose-dependent thermal stabilisation call” value did it give?
The value was inactive: 0.

For SFXN3 (UniProt Q9BWM7), which “dose-dependent thermal stabilisation call” value is on record?
Its value is inactive: 0.

How did the “dose-dependent thermal stabilisation call” value turn out when SNX17 (UniProt Q15036) was run?
Its value is inactive: 0.

For SLC25A33 (UniProt Q9BSK2), which “dose-dependent thermal stabilisation call” value is on record?
The value was inactive: 0.

How did the “dose-dependent thermal stabilisation call” value turn out when SHPRH (UniProt Q149N8) was run?
The value was inactive: 0.

How did the “dose-dependent thermal stabilisation call” value turn out when SLC25A10 (UniProt Q9UBX3) was run?
The value was inactive: 0.

With SGTA (UniProt O43765) as the target, how does the “dose-dependent thermal stabilisation call” value read?
The value was inactive: 0.

Which “dose-dependent thermal stabilisation call” value does the source give for SESN2 (UniProt P58004) here?
The value was inactive: 0.

For SLC19A1 (UniProt P41440), which “dose-dependent thermal stabilisation call” value is on record?
Its value is inactive: 0.

Which “dose-dependent thermal stabilisation call” value does the source give for SLC20A1 (UniProt Q8WUM9) here?
The value was inactive: 0.

For SLC45A3 (UniProt Q96JT2), which “dose-dependent thermal stabilisation call” value is on record?
The value was inactive: 0.

With SGOL1 (UniProt Q5FBB7) as the target, how does the “dose-dependent thermal stabilisation call” value read?
Its value is inactive: 0.

With SFRS5 (UniProt Q13243) as the target, how does the “dose-dependent thermal stabilisation call” value read?
The value was inactive: 0.

How did the “dose-dependent thermal stabilisation call” value turn out when SLC39A6 (UniProt Q13433) was run?
The value was inactive: 0.

SLC38A10 (UniProt Q9HBR0) was tested. Which “dose-dependent thermal stabilisation call” value did it give?
Its value is inactive: 0.

SF3B3 (UniProt Q15393) was tested. Which “dose-dependent thermal stabilisation call” value did it give?
Its value is inactive: 0.

With SMAP1 (UniProt Q8IYB5) as the target, how does the “dose-dependent thermal stabilisation call” value read?
Its value is inactive: 0.

SHQ1 (UniProt Q6PI26) was tested. Which “dose-dependent thermal stabilisation call” value did it give?
Its value is inactive: 0.

With SLAIN1 (UniProt Q8ND83) as the target, how does the “dose-dependent thermal stabilisation call” value read?
Its value is inactive: 0.

With SF3A1 (UniProt Q15459) as the target, how does the “dose-dependent thermal stabilisation call” value read?
Its value is inactive: 0.

For SMAD1 (UniProt Q15797), which “dose-dependent thermal stabilisation call” value is on record?
Its value is inactive: 0.

For SLCO4A1 (UniProt Q96BD0), which “dose-dependent thermal stabilisation call” value is on record?
Its value is inactive: 0.

Which “dose-dependent thermal stabilisation call” value does the source give for SLC30A1 (UniProt Q9Y6M5) here?
Its value is inactive: 0.

Which “dose-dependent thermal stabilisation call” value does the source give for SLC25A24 (UniProt Q6NUK1) here?
Its value is inactive: 0.

With SMAD2 (UniProt Q15796) as the target, how does the “dose-dependent thermal stabilisation call” value read?
The value was inactive: 0.
